Laboratory results from PubChem BioAssay AID504467 (National Center for Advancing Translational Sciences (NCATS), 2011).
Screen size: about 330,000 compounds; about 7,700 (2.3%) were called active. This list was built around the results that the source calls inconclusive (neither active nor inactive); the mix of calls is not that of the screen. Calls follow the shape of the dose curve; as a rule, active = well fitted inhibition curve with a large enough effect; inconclusive = small, poorly fitted or top-dose-only effect, or effect the other way; inactive = flat fitted curve, though single readings scatter. A potency beside an inconclusive call is a rough fit, not a confirmed value.

Assay: qHTS screen for small molecules that inhibit ELG1-dependent DNA repair in human embryonic kidney (HEK293T) cells expressing luciferase-tagged ELG1; also: nearly all actives have a fitted effect of over 55% in size
Conditions: HEK293T ELG1-luciferase reporter, luminescence, 16 h, DNA damage induced by 5-fluorouridine; series mostly up to 46.1 µM
Method in brief: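 In this reporter screen, reduction of luminescence relative to DMSO vehicle indicated activity. Compounds and 5-fluorouridine were added together to 2,000 cells per well, incubated for 16 hr at 37 °C, then developed with ONE-Glo.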
Potency is read from the fitted curve at half-maximal effect.

**Q.** For O=C(Nc1cc(Cl)cc(Cl)c1)C1CCCC1, which Potency is on record?
**A.** The Potency was “inactive”.

**Q.** For Cc1ccc(O)c(-c2[nH]ncc2C(=O)c2ccc(Cl)cc2)c1, which Potency is on record?
**A.** The Potency was “inactive”.

**Q.** Which Potency does the source give for Cc1ccc(-c2nnc3n2N=C(c2ccccc2)CS3)cc1 here?
**A.** The Potency was “inactive”.

**Q.** Which Potency does the source give for C/C(=N\NC(=O)c1cccc(Br)c1)c1ccccn1 here?
**A.** Its Potency is inconclusive: 5.8 µM [activator, single point].

**Q.** For COc1ccccc1NC(=O)C1CCCN(S(=O)(=O)c2cccc3nsnc23)C1 (stereo not given), which Potency is on record?
**A.** The Potency was inconclusive: 29.1 µM [inhibitor, single point].

**Q.** Which Potency does the source give for COc1cc(/C=N/NC(=O)Cc2cccs2)c([N+](=O)[O-])cc1OC here?
**A.** The Potency was inconclusive: 25.9 µM [inhibitor, single point].

**Q.** With COc1ccc(S(=O)(=O)N2CCCN(CC(=O)Nc3ccccc3F)CC2)cc1 as the compound, how does the Potency read?
**A.** Its Potency is “inactive”.

**Q.** Which Potency does the source give for O=C(NNC(=O)[C@H]1CC=CC[C@H]1C(=O)O)c1ccc(Cl)cc1Cl here?
**A.** The Potency was “inactive”.

**Q.** For O=c1cc(-c2ccccc2)[nH]c2ccccc12, which Potency is on record?
**A.** Its Potency is inconclusive: 1.16 µM [inhibitor, single point].

**Q.** Which Potency does the source give for COc1ccc2nc(N/C(N)=N/C(=S)Nc3c(C)cccc3C)nc(C)c2c1 here?
**A.** Its Potency is “inactive”.

**Q.** Which Potency does the source give for COc1ccccc1Oc1nc2c(c(=O)n(Cc3ccccc3F)c(=O)n2C)n1C here?
**A.** The Potency was inconclusive: 23.1 µM [inhibitor, single point].

**Q.** For CCn1c(-c2ccc(OC)c(OC)c2)n[nH]c1=S, which Potency is on record?
**A.** The Potency was “inactive”.

**Q.** For CCCn1c(N)c(C(=O)CSc2nnc3ccccn23)c(=O)[nH]c1=O, which Potency is on record?
**A.** Its Potency is “inactive”.

**Q.** For COC(=O)N/N=C/c1cc(N=Nc2ccccc2Cl)ccc1O, which Potency is on record?
**A.** The Potency was inconclusive: 13 µM [activator, partial curve, poor fit].

**Q.** With COc1ccc(-c2[nH]ncc2/C=C(/C#N)C(=O)NC2CCCCCC2)cc1 as the compound, how does the Potency read?
**A.** Its Potency is active: 18.4 µM.

**Q.** With O=C(OCC(=O)N1CCCC1)c1ccccc1C(=O)c1ccccc1 as the compound, how does the Potency read?
**A.** The Potency was inconclusive: 35.5 µM [activator, single point].

**Q.** For Cc1ccsc1C(=O)N1CCN(C(=O)c2ccco2)CC1, which Potency is on record?
**A.** Its Potency is “inactive”.

**Q.** Which Potency does the source give for CCN(CC)CCCNC(=S)N(Cc1ccco1)Cc1cc2cc3c(cc2[nH]c1=O)OCCO3 here?
**A.** Its Potency is inconclusive: 18.4 µM [activator, partial curve, poor fit].

**Q.** For COc1ccc(CN(CCC#N)C(=S)NC(=O)c2ccccc2)cc1, which Potency is on record?
**A.** The Potency was “inactive”.

**Q.** For O=C(Nc1nc(-c2ccc(Cl)cc2)cs1)c1cccnc1, which Potency is on record?
**A.** The Potency was “inactive”.

**Q.** With C/C(=N\Nc1ccc(Cl)c(C(=O)O)c1)c1cc2ccccc2o1 as the compound, how does the Potency read?
**A.** Its Potency is inconclusive: 20.6 µM [activator, partial curve].

**Q.** With Cc1ccc(S(=O)(=O)N2CCCc3cc(NC(=O)c4c(F)cccc4F)ccc32)cc1 as the compound, how does the Potency read?
**A.** Its Potency is active: 23.1 µM.

**Q.** For CN=Cc1cc(-c2ccccc2)sc1O, which Potency is on record?
**A.** The Potency was inconclusive: 20.6 µM [activator, partial curve].

**Q.** For Cc1onc(-c2ccccc2)c1CNC(=O)Nc1ccc(C(F)(F)F)cc1, which Potency is on record?
**A.** Its Potency is inconclusive: 20.6 µM [inhibitor, single point].

**Q.** Which Potency does the source give for CCNc1ccc(C2(O)C(=O)c3ccccc3C2=O)cc1 here?
**A.** The Potency was “inactive”.

**Q.** For CCOc1nc(Nc2ccc(OC)cc2)nc(N2CCOCC2)n1, which Potency is on record?
**A.** Its Potency is inconclusive: 18.3 µM [inhibitor, single point].

**Q.** For NNC(=O)c1[nH]c2ccc(Br)cc2c1-c1ccccc1, which Potency is on record?
**A.** The Potency was inconclusive: 20.6 µM [inhibitor, single point].

**Q.** For Cc1cc(C(=O)COC(=O)CNC(=O)c2ccc(F)cc2)c(C)n1Cc1ccco1, which Potency is on record?
**A.** Its Potency is inconclusive: 20.6 µM [activator, partial curve].

**Q.** Which Potency does the source give for O=Cc1c(SCCO)nc2ccccn2c1=O here?
**A.** Its Potency is “inactive”.

**Q.** For COCCNc1nc(-c2cc(C)n(CCc3ccc(OC)cc3)c2C)cs1, which Potency is on record?
**A.** The Potency was inconclusive: 32.6 µM [inhibitor, single point].

**Q.** With COc1ccccc1NS(=O)(=O)c1ccc2ccccc2c1 as the compound, how does the Potency read?
**A.** Its Potency is “inactive”.

**Q.** Which Potency does the source give for Cc1cc(C(=O)COC(=O)c2ccc3c(c2)OCO3)c(C)n1Cc1cccs1 here?
**A.** Its Potency is inconclusive: 4.11 µM [activator, full curve].

**Q.** For O=C(CCN1C(=O)/C(=C\c2ccco2)SC1=S)Nc1ccc(C(=O)O)c(O)c1, which Potency is on record?
**A.** The Potency was “inactive”.

**Q.** For Nc1ccccc1SCC(=O)Nc1ccc2c(c1)OCCO2, which Potency is on record?
**A.** The Potency was inconclusive: 6.51 µM [activator, single point].

**Q.** For COc1ccc(CSc2nnnn2-c2ccccc2)cc1, which Potency is on record?
**A.** The Potency was “inactive”.

**Q.** Which Potency does the source give for CCCCCCNc1c([N+](=O)[O-])c(=O)sc2ccccc12 here?
**A.** The Potency was inconclusive: 16.4 µM [inhibitor, single point].

**Q.** Which Potency does the source give for COCCn1c(C)cc(C2=NNC(=Nc3ccc(F)cc3)SC2)c1C here?
**A.** Its Potency is inconclusive: 2.06 µM [activator, full curve].

**Q.** Which Potency does the source give for COc1ccc(C2(CNC(=O)c3ccccc3)CCCC2)cc1OC here?
**A.** The Potency was “inactive”.

**Q.** Which Potency does the source give for CNC(=O)c1[nH]cnc1C(=O)N[C@@H](Cc1ccccc1)C(=O)OC(C)(C)C here?
**A.** The Potency was “inactive”.

**Q.** For CC(=O)c1cccc(NC(=O)CSc2nc(=O)n(Cc3ccccn3)c3c2CCC3)c1, which Potency is on record?
**A.** Its Potency is inconclusive: 20.6 µM [inhibitor, partial curve, poor fit].

**Q.** With COc1ccc2c(c1)c(C(C)=O)c(C)n2C as the compound, how does the Potency read?
**A.** The Potency was “inactive”.

**Q.** With O=C(OCCCOC(=O)c1ccc([N+](=O)[O-])o1)c1ccc([N+](=O)[O-])o1 as the compound, how does the Potency read?
**A.** Its Potency is “inactive”.

**Q.** For O=C(N/N=C/C=C\c1ccco1)c1cccs1, which Potency is on record?
**A.** Its Potency is inconclusive: 23.1 µM [activator, partial curve].

**Q.** With CN(c1cccc(NC(=O)CSc2ccc(Cl)cc2)c1)S(C)(=O)=O as the compound, how does the Potency read?
**A.** The Potency was inconclusive: 20.6 µM [inhibitor, partial curve].

**Q.** Which Potency does the source give for Cc1cc(C(=O)CSc2nnc(C3COc4ccccc4O3)n2C)c(C)n1-c1ccc(F)cc1 (stereo not given) here?
**A.** Its Potency is inconclusive: 7.31 µM [inhibitor, partial curve].

**Q.** For O=C(CSc1ccccn1)Nc1cccc(NC(=O)CSc2ccccn2)n1, which Potency is on record?
**A.** The Potency was inconclusive: 29.1 µM [activator, single point].

**Q.** For O=C(NCc1ccccc1F)C1CCCN1C(=O)Nc1ccccc1 (stereo not given), which Potency is on record?
**A.** The Potency was “inactive”.

**Q.** Which Potency does the source give for COc1ccc(CC(=O)Nc2cccc(-c3ccc4nnc(C)n4n3)c2)cc1OC here?
**A.** The Potency was inconclusive: 20.6 µM [inhibitor, partial curve, poor fit].

**Q.** For COc1cccc(C2=NCCc3cc4c(cc32)OCO4)c1OC, which Potency is on record?
**A.** The Potency was “inactive”.

**Q.** With CCCn1cnc2cc(NC(=O)c3cccs3)ccc21 as the compound, how does the Potency read?
**A.** The Potency was inconclusive: 10.3 µM [activator, partial curve].
